Tested on: F4/80+ cells isolated from adipose tissue
Assay: miR microarray in F4/80+ adipose tissue macrophages of treated DIO mice
Assay type: in vivo, C57BL/6J male mice
Settings: F4/80+ ATMs
Description: Epididymal fat pads of mice were excised and placed in gentleMACS™ C Tubes (Miltenyi Biotec, San Diego, Calif.) containing digestion medium (HBSS, 2 mg/ml collagenase (Sigma-Aldrich, St. Louis, Mo.) and 2% BSA), followed by homogenization utilizing a gentleMACS™ Dissociator (Miltenyi Biotec). After incubation at 37° C. for 30 minutes with gentle shaking, the cell suspension was filtered through a 100-μm filter and then spun at 300 g for 5 minutes to separate floating adipocytes from the stromal vascular fraction (SVF) pellet. Isolation of F4/80+ ATMs from the SVF was performed using EasySep™ FITC Positive Selection Kit (STEMCELL Technologies, Vancouver, B.C.). FITC-anti-F4/80 antibodies (Clone: BM8, BioLegend®, San Diego, Calif.) were used to label the cells for positive selection. Isolated cells were lysed for RNA analysis in QIAzol (Qiagen, Valencia, Calif.) and stored at −80° C. until RNA purification.
The unique expression profile of miRs was assessed in F4/80+ cells isolated from adipose tissue by Affymetrix GeneChip® miR 3.0 array platform. The array contains 3100 murine-specific probes from Sanger miRBase. Total RNA was 3′-end labeled with FlashTag™ Biotin HSR hybridization technique (Genisphere, Hatfield, Pa.) and was carried out according to the manufacturer's instructions (Affymetrix®, Santa Clara, Calif.). Microarray CEL files were assessed for quality, normalized, and converted to CHP files by using the algorithm RMA-DABG in the software Affymetrix® Expression Console™ Version 1.4.1.46. CHP files were further analyzed using Affymetrix® Transcriptome Analysis Console™ Version 3.1.0.5 for annotation and differential expression. Expression of Log2 fold change (Log2 FC) was calculated and mean normalized expression was visualized in the form of a heat-map. miRs were considered differentially expressed if the Log2 FC was greater than +/−1.95.

Cc1c(C(=O)NN2CCCCC2)nn(-c2ccc(Cl)cc2Cl)c1-c1ccc(Cl)cc1 [SR141716A, 5-(4-chlorophenyl)-1-(2,4-dichlorophenyl)-4-methyl-N-piperidin-1-ylpyrazole-3-carboxamide]
number of miRs over-expressed (≥ 1.95 log2 fold-change) (HFD+SR vs HFD+Veh): 18 | number of miRs under-expressed (≥ 1.95 log2 fold-change) (HFD+SR vs HFD+Veh): 110 | number of miRs significantly down-regulated (HFD+SR vs HFD-PFSR): 109 | number of miRs significantly up-regulated (HFD+SR vs HFD-PFSR): 11
